From the M2OR odorant receptor database
The list shows a part of the results, in another mix than the full data. Calls are pooled over several reports, among them a noisy single-well screen. The list shows a part of the results.

Columns and labels:
Conditions in all cases: stereoisomer not certain
UniProt Q8VGU3 = target: T1, UniProt Q8VGU3
T1 sequence (whole entry): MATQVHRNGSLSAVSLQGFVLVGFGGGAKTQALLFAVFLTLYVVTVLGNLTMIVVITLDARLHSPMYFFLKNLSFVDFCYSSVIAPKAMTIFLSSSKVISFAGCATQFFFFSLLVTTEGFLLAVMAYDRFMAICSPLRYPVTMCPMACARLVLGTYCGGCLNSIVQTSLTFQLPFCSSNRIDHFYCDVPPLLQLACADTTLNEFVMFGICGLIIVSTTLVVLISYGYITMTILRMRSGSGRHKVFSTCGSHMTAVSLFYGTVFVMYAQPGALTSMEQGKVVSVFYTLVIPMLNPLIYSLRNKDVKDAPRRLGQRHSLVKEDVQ
Procedure, shortened: (§1)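 Each receptor–molecule pair is labelled responsive or non-responsive (inactive) according to whether the original authors judged the measured signal statistically different from baseline. The data were taken from the main text and supplementary material of published papers and checked for typos and inconsistencies. Assay methods differed by source, with transient luciferase assays in mammalian cell lines being common.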

UniProt Q8VGV7 = target: T2, UniProt Q8VGV7
T2 sequence (whole entry): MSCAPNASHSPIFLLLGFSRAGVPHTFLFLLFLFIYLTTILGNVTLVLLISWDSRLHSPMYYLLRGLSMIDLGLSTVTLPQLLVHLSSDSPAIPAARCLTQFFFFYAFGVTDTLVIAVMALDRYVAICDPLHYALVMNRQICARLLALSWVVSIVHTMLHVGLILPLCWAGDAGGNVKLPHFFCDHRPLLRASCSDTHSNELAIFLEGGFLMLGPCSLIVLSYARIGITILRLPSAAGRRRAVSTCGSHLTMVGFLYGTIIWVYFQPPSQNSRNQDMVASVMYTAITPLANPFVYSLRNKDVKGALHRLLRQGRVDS
Procedure, shortened: as §1

UniProt Q8VGX3 = target: T3, UniProt Q8VGX3
T3 sequence (whole entry): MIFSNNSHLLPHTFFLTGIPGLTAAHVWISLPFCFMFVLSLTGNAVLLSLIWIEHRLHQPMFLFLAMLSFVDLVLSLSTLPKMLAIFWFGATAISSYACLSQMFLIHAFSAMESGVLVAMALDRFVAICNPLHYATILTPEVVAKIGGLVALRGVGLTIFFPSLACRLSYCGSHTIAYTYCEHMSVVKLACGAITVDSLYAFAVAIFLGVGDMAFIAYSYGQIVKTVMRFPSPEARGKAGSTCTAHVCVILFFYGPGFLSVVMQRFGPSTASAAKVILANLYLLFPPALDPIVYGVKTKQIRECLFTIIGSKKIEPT
Procedure, shortened: as §1

UniProt Q8VGX5 = target: T4, UniProt Q8VGX5
T4 sequence (whole entry): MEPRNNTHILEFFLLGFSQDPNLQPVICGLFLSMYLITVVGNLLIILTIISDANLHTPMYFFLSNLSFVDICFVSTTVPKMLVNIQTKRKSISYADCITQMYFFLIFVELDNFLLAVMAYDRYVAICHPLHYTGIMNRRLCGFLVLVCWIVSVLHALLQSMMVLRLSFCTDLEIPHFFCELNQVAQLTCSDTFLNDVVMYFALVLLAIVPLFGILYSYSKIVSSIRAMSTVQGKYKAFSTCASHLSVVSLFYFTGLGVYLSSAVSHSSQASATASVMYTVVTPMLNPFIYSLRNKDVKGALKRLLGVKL
Procedure, shortened: as §1

UniProt Q8VGZ2 = target: T5, UniProt Q8VGZ2
T5 sequence (whole entry): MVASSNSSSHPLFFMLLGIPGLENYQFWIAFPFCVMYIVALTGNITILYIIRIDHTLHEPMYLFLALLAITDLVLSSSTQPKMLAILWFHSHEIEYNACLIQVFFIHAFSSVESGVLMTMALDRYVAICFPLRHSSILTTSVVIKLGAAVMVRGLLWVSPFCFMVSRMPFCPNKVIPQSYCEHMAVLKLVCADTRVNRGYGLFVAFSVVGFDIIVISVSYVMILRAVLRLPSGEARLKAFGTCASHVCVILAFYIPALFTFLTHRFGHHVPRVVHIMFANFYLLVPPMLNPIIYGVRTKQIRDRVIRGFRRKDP
Procedure, shortened: as §1

UniProt Q8VGZ7 = target: T6, UniProt Q8VGZ7
T6 sequence (whole entry): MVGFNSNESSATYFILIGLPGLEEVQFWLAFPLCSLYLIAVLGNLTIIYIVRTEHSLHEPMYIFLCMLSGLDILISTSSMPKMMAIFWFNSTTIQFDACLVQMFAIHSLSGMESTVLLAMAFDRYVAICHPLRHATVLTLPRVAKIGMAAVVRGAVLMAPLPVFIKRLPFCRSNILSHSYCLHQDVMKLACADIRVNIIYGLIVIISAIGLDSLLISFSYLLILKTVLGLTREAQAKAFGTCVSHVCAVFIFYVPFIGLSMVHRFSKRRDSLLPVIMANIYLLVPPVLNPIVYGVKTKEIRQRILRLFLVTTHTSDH
Procedure, shortened: as §1

UniProt Q8VH16 = target: T7, UniProt Q8VH16
T7 sequence (whole entry): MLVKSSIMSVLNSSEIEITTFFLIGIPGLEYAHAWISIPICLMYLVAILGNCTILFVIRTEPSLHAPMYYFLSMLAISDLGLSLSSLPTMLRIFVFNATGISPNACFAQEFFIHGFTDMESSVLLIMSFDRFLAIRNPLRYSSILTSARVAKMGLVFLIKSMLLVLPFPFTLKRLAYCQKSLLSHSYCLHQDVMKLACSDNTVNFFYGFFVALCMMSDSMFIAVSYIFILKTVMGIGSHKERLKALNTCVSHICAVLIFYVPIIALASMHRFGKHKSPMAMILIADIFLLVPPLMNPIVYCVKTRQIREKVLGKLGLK
Procedure, shortened: as §1

UniProt Q8VH20 = target: T8, UniProt Q8VH20
T8 sequence (whole entry): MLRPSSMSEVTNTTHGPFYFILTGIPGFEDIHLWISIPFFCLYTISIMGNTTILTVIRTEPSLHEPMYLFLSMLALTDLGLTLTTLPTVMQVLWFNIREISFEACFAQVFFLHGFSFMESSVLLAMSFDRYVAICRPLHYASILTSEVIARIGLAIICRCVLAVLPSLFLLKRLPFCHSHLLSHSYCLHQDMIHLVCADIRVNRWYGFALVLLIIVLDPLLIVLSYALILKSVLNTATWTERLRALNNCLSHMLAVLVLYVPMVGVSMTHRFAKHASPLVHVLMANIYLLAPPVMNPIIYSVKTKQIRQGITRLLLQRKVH
Procedure, shortened: as §1

UniProt Q8VH21 = target: T9, UniProt Q8VH21
T9 sequence (whole entry): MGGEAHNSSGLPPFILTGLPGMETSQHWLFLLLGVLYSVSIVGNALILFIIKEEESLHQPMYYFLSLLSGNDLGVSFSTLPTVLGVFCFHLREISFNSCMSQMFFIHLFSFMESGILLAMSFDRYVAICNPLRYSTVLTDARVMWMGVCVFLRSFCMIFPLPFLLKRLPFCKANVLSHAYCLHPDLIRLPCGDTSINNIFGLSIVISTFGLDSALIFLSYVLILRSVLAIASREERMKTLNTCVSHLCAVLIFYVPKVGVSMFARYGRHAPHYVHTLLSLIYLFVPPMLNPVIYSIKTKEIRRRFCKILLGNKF
Procedure, shortened: as §1

UniProt Q924H8 = target: T10, UniProt Q924H8
T10 sequence (whole entry): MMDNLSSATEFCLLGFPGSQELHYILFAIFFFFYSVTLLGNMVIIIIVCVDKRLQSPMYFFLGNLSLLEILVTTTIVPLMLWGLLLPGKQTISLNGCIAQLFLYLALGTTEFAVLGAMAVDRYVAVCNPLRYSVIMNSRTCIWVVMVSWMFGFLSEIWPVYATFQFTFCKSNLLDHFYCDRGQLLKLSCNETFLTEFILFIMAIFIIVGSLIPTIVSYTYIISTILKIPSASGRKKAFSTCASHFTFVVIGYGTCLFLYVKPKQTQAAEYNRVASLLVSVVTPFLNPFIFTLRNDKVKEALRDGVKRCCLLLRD
Procedure, shortened: as §1

Measured: odorant receptor agonist call

C=CCc1ccc(OC)c(OC)c1
active: UniProt Q8VGX5
inactive: all other assays above
